At least one structure is not confirmed: it was looked up by name or label, or the drawing left a doubt.
Assays:
HDAC5 nuclear export [1] = experiment: PE-induced HDAC5 nuclear export in neonatal rat ventricular cardiomyocytes (NRVMs); format: cell-based
Method: (§1) A, B, Cos7 cells were co-transfected with expression vectors encoding GFP-tagged HDAC5 (GFP-HDAC5) and constitutively active protein kinases as indicated, and then exposed to phorbol-12-myristate-13-acetate (PMA, […]) for 3 hours. […] A-F, The cells were fixed and the subcellular localization of GFP-HDAC5 was visualized by fluorescence microscopy.
(§2) The cells were fixed and GFP-HDAC5 localization was analyzed by fluorescence microscopy. α-actinin was detected by immunofluorescence using an antibody against α-actinin and a fluorescein-conjugated secondary antibody. The nuclei were stained with DAPI.
as §2, with “DAPI. B, PKA expression in cell lysates were determined by Western blot using PKA antibody.” for “DAPI.”
The cells were fixed and endogenous HDAC5 localization was analyzed by fluorescence microscopy. HDAC5 and α-actinin was detected by immunocytochemistry with antibody against HDAC5 and α-actinin.
The cells were fixed and GFP-HDAC5 subcellular localization was analyzed by fluorescence microscopy and stained with an α-actinin antibody and DAPI. […]

NRVMs = experiment: Cardiomyocyte hypertrophy (cell size, α-actinin immunostaining) in NRVMs; format: cell-based, rat; conditions: forskolin 10 μM, cAMP 500 μM, Rolipram 10 μM 30 min, PE or Angiotensin II 24 hours
Text: A-H, Cardiomyocyte size was detected by immunostaining with anti-α-actinin antibody. […] The cells were fixed and analyzed for GFP-HDAC5 localization, α-actinin staining and nuclear DAPI staining *, p<0.05 versus without PE; #, p<0.05 versus with PE alone. I, Schematic model for PKA-dependent regulation of HDAC5 subcellular localization and gene transcription.
Cardiomyocyte protein marker α-actinin was detected by immunofluorescence using antibody against α-actinin and fluorescein-conjugated secondary antibody.
After 24 hour culture, cells were maintained in serum-free DMEM medium for additional 24 hours, and then exposed to various inducers or inhibitors (for 30 minutes) prior to PE or PMA stimulation for indicated times. The cells were washed with PBS and fixed with 3.7% formaldehyde in PBS. Images were captured at a magnification of ×60, using a fluorescence microscope (Olympus BX51) equipped with a digital camera and Spot software system (RT Color Diagnostic Instruments). […] For subcellular localization of HDAC5, total around 200 cells were counted in each condition. For cardiomyocyte size, total myocyte surface areas were calculated using NIH Image J software, and expressed as the average of 100 randomly selected cells per condition.

[2] = tested on: HDAC5 phosphorylation at Ser259 and Ser498; experiment: HDAC5 phosphorylation at Ser259 and Ser498, immunoblot in Cos7 cells; format: cell-based; conditions: Cos7 cells co-transfected with Flag-HDAC5 and constitutively active HA-PKD1
HDAC7 nuclear export = experiment: PMA-induced YFP-HDAC7 nuclear export in Cos7 cells; format: cell-based; conditions: KN replaced with SS
HDAC5 nuclear export [3] = experiment: PMA-induced GFP-HDAC5 nuclear export in Cos7 cells (fluorescence microscopy); format: cell-based; conditions: GFP-HDAC5-WT, pretreatment, then PMA for 3 hours
Method: as §1
C, D, Cos7 cells were transfected with GFP-HDAC5-WT or GFP-HDAC5-S280D and then exposed to PMA for 3 hours. GFP-HDAC5-S280D but not GFP-HDAC5-WT was resistant to PMA-induced nuclear export. *, p<0.05 versus without PMA, n=4. […] Phosphorylation of HDAC5 in cell lysates was analyzed by immunoblotting with phospho-specific HDAC5 antibodies that recognize the HDAC5 phosphorylated at Ser259 (E) and Ser498 (F). […] 14-3-3 in total cell lysates (5% of the input) was determined by immunoblotting with anti-14-3-3 antibodies. […]
The cells were fixed and GFP-HDAC5 localization was analyzed by fluorescence microscopy. […]
After 24 hour culture, cells were maintained in serum-free DMEM medium for additional 24 hours, and then exposed to various inducers or inhibitors (for 30 minutes) prior to PE or PMA stimulation for indicated times. […] Images were captured at a magnification of ×60, using a fluorescence microscope (Olympus BX51) equipped with a digital camera and Spot software system (RT Color Diagnostic Instruments). […]

C=C[C@@]1(C)CC(=O)[C@]2(O)[C@@]3(C)[C@@H](O)CCC(C)(C)[C@@H]3[C@H](O)[C@H](OC(C)=O)[C@@]2(C)O1 [forskolin]
PE-induced nuclear export of GFP-HDAC5 S280A (HDAC5 nuclear export [1]; S280A mutant, cAMP 500 μM or forskolin 10 μM 30 min, PE 3 hours): resistant to PKA inhibition | PE-stimulated HDAC5 nuclear export (HDAC5 nuclear export [1]; adenoviral GFP-HDAC5, 30 min pretreatment, PE 10 μM 3 hours): markedly inhibited PE-stimulated HDAC5 nuclear export | PE/Angiotensin II-induced cardiomyocyte hypertrophy (NRVMs): inhibit PE/Angiotensin II-induced cardiomyocyte hypertrophy | PKD1-dependent HDAC5 phosphorylation at Ser259 and Ser498 [2]: did not affect | nuclear export of YFP-HDAC7-KN/SS mutant (HDAC7 nuclear export): blocked | PMA-induced HDAC5 nuclear export (HDAC5 nuclear export [3]): totally blocked HDAC5 nuclear export

From patent US20130156753A1 (UNIVERSITY OF ROCHESTER, priority 2010, published 2013)
